## Results of single-concentration screens

Chains of the proteins cited; added tags and fusions are not shown.
UniProt I6X8D2, whole entry: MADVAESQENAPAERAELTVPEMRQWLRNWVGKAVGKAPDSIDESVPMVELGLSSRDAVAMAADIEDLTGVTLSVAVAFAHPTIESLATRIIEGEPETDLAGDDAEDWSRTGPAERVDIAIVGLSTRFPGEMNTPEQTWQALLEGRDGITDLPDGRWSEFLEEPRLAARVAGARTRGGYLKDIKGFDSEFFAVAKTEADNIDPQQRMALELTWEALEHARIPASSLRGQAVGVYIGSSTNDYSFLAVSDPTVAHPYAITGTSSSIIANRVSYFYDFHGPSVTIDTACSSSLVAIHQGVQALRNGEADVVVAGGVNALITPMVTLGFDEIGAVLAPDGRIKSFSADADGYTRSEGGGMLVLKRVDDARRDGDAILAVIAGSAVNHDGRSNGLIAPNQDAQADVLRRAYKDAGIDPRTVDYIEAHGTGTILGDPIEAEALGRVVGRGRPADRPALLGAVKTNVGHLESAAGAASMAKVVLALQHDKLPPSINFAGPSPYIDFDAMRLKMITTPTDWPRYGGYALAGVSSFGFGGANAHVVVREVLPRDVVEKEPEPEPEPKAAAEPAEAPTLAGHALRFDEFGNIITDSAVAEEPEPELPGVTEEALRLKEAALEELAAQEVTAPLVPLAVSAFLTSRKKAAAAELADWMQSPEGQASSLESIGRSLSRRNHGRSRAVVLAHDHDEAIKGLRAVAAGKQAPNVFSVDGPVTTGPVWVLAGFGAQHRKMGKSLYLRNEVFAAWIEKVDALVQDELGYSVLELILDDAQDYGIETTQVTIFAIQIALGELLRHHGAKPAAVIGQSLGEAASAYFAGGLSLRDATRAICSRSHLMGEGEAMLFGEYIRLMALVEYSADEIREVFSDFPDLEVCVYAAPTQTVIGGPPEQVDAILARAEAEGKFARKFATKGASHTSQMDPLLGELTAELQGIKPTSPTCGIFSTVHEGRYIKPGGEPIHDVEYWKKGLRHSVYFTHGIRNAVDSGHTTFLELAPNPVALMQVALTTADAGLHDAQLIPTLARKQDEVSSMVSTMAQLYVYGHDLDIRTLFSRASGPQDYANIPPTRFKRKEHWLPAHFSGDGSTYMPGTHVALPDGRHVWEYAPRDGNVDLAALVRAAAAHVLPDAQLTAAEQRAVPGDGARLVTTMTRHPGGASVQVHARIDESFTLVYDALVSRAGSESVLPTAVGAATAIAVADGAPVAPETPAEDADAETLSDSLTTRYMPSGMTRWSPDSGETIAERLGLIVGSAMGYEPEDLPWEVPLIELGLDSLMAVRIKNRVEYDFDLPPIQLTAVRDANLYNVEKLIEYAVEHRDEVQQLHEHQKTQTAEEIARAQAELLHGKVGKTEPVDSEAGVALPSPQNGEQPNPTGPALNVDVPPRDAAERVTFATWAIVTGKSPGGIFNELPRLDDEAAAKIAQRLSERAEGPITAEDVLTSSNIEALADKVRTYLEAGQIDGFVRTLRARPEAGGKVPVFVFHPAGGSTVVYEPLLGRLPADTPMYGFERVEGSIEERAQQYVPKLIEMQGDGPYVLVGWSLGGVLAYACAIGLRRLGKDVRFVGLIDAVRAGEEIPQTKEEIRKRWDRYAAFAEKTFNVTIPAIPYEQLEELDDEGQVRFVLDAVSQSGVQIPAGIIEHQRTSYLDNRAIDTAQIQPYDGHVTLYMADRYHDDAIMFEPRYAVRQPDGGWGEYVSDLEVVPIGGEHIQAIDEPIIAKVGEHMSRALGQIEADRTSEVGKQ

Measurements from “University of Dundee, Small-Polar-MMV Screening Library” (2021), ChEMBL document CHEMBL3988442.

Each number is a percent effect as filed. The record does not define 0% and 100%; most values in the screen are far below 50% and negative numbers occur (in some assays of this library far below -100). The compounds are a random part of those screened.

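Enzyme assay of the thioesterase domain of polyketide synthase 13; the read-out is not stated. Target: Polyketide synthase Pks13, Mycobacterium tuberculosis (UniProt I6X8D2). Tested at 30 µM. Higher reads as stronger inhibition (inferred from which compounds were picked for retests). Size under these conditions: about 67,000 compounds, about 300 of them at 50% or above in at least one test.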

* CN(C)C(=O)N1CCC2(CC1)CCN(Cc1ccccn1)C2=O : -8.625%
* CC(C)(CNC(=O)Nc1ccc(S(=O)(=O)C(F)F)cc1)N1CCOCC1 : 3.108%
* CN1CCOCC2(CCCN(C(=O)c3ccc(-n4cccc4)cc3)C2)C1 (centres undefined) : -11.92%
* COCCN1C(=O)CCC12CCCN(Cc1nccs1)CC2 (centres undefined) : -13.28%
* O=C1N(Cc2cccnc2)C[C@H]2CN(C3CCOCC3)CCN12 : -27.34%
* Nc1cnn(CC(=O)N2CCCCC2)c1 : 3.927%
* CC(C)Oc1cccc(C(=O)C2CCCN(C(=O)c3cncs3)C2)c1 (centres undefined) : 9.418%
* Cc1nnc2n1CCN(CC(=O)N1CCc3ccccc3C1)C2 : -25.34%
* O=C(O)c1c[nH]c2cc(NS(=O)(=O)c3ccc(Cl)cc3F)ccc12 : -1.346%
* O=C(NCCO)C1(Cc2ccccc2-c2ccncc2)CCOCC1 : -8.168%
* CCCc1noc(CCC(=O)N2CCCC2c2cccs2)n1 (centres undefined) : -8.421%
* CCN1CCN(c2ccc(F)cc2C(C)NCc2nc(C)no2)CC1 (centres undefined) : -41.52%
* CCCc1ccc(CN2CCC3(CCC(=O)N(CCCOC)C3)CC2)o1 : -0.4765%
* CC(C(=O)N(Cc1ccccc1)CC(F)(F)F)S(C)(=O)=O (centres undefined) : -16.46%
* NC(=O)c1ccc(CNCC2CCN(CCO)CC2)cc1 : -9.874%
* COc1cccc(C2C3=C(COC3=O)Nc3[nH]nc(C)c32)c1OC (centres undefined) : -34.52%
* CNC(=O)[C@@]12CCO[C@@H]1CCN(Cc1c(C)noc1C)C2 : -10.36%
* CCNC(=O)[C@@H]1CCCN1[C@@H](C(=O)NC)C1CC1 : -3.798%
* CC(C)(C)CNC(=O)c1ccc(C(=O)O)cn1 : -11.2%
* CCS(=O)(=O)CCNC(=O)C1(c2cccc(Cl)c2)CC1 : -23.92%
* Cc1cccc(CSc2ncc(Cl)c(C(=O)O)n2)c1 : 1.352%
* CCN1C(=O)CC[C@]12CC[C@@H](NC(=O)NCc1cccnc1)CC2 : -2.27%
* Cc1c(C(=O)NCCCC(N)=O)sc2ccc(F)cc12 : 0.2946%
* COc1ccc(Nc2nc(N)c(C(C)=O)s2)cc1Cl : 20.8%
* Cc1cccc(CN2C[C@@H]3COC[C@]3(CNC(=O)c3ccsc3)C2)n1 : 1.103%
* NC(=O)CN1CCCC(C(=O)N2CCC(O)(c3ccccc3)CC2)C1 (centres undefined) : 1.694%
* Cc1nnc2n1CCN(CC(O)CN1CCC(C)CC1)C2 (centres undefined) : -2.557%
* CCOc1ccccc1C(C(=O)O)N(C)Cc1cc(C)[nH]n1 (centres undefined) : 0.00496%
* O=C(CCS(=O)(=O)C1CCCC1)NCc1ccccc1Cn1cncn1 : -9.242%
* COCC(O)CNC(=O)Nc1c(F)cc(F)cc1-c1ccccc1 (centres undefined) : -15.37%
* O=C(CSc1ccccn1)NCc1ccc2c(c1)CCC(=O)N2 : -11.81%
* Cc1nc(CN2CC(CCCc3ccccn3)(C(=O)N(C)C)C2)co1 : -14.82%
* Cc1ccc(C(=O)N2CCC3(CCCC3)CC2)c(=O)[nH]1 : 7.027%
* Cn1cnc2c1C(COCC1CCOCC1)CN(C1CCOCC1)C2 (centres undefined) : -37.97%
* COc1cc(F)ccc1C(C(=O)O)N1CCN(C2CCCCC2)CC1 (centres undefined) : -25.01%
* CCCn1cc(C(=O)NC(CC(=O)O)c2ccccc2F)c(C)n1 (centres undefined) : 8.917%
* Cc1ccc(-n2cc(CN3CCN(C)[C@@H]4CS(=O)(=O)C[C@@H]43)cn2)cc1 : -25.42%
* CNS(=O)(=O)c1cccc(CNC(=O)c2cnn(C)c2C)c1 : -4.901%
* Cc1cc(S(=O)(=O)N2CCC(S(C)(=O)=O)CC2)ccc1F : -10.82%
* CC1=NOC(C(=O)N2CCC(O)(c3ccc4nc(C)ccc4c3)CC2)C1 (centres undefined) : -22.84%
* Cc1cc(NS(=O)(=O)c2ccccc2F)ccc1-n1cccc1C(=O)O : -42.77%
* OCCn1nccc1C1CCN(CCOc2ccccc2)CC1 : -22.78%
* NCC1(c2cccc(F)c2)CCOCC1 : -2.735%
* CN(CCN1CCOCC1)C(=O)CCCOCCc1ccccc1 : 13.21%
* Cc1nc(C2CCN(C(=O)c3ccc(Cl)s3)CC2)cc(=O)[nH]1 : -1.6%
* O=C(CCCc1ccc(Cl)cc1)N1CCC(c2nnc[nH]2)CC1 : -26.64%
* Cc1cc(C)n(CC(C)NCCn2nc(C)c(Cl)c2C)n1 (centres undefined) : -15.13%
* Cc1cc(CNC(=O)C2CC(=O)N(CCN(C)C)C2)cc(C)n1 (centres undefined) : -8.412%
* COc1c(CNCc2ccnc(N3CCCC3)c2)c(C)nn1C : -2.667%
* CS(=O)(=O)N1CCN(CC(=O)Nc2cccc(Cl)c2)CC1 : -20.42%

Once more, the final 6:

For Cc1nc(C2CCN(C(=O)c3ccc(Cl)s3)CC2)cc(=O)[nH]1 the result was -1.6%.
For O=C(CCCc1ccc(Cl)cc1)N1CCC(c2nnc[nH]2)CC1 the result was -26.64%.
For Cc1cc(C)n(CC(C)NCCn2nc(C)c(Cl)c2C)n1 (centres undefined) the result was -15.13%.
For Cc1cc(CNC(=O)C2CC(=O)N(CCN(C)C)C2)cc(C)n1 (centres undefined) the result was -8.412%.
For COc1c(CNCc2ccnc(N3CCCC3)c2)c(C)nn1C the result was -2.667%.
For CS(=O)(=O)N1CCN(CC(=O)Nc2cccc(Cl)c2)CC1 the result was -20.42%.